Data as given in publication PMC12148412.
No constants are given. Whether binding was seen depends on the method and setting. In cells and extracts the contact can be indirect. Some results given as binding are weak or reduced against the parent protein; the word gives no strength. For some of these results: Where a sequence is shown, tags or fusion partners need not be part of it.

By UniProt entry, the sequences of proteins in these tests, tags left out. Where a name states a change or a piece, a line headed by the entry shows the natural chain unless it says otherwise. Chains listed by the source or under a name are the forms on record and can include a tag or linker. Residues count along the entry.
UniProt Q9ULZ3: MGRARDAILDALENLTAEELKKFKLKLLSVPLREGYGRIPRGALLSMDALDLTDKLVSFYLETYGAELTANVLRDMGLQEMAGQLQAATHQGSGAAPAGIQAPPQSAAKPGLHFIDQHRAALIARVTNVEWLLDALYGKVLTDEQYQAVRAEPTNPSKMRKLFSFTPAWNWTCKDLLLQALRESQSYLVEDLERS
UniProt Q96P20: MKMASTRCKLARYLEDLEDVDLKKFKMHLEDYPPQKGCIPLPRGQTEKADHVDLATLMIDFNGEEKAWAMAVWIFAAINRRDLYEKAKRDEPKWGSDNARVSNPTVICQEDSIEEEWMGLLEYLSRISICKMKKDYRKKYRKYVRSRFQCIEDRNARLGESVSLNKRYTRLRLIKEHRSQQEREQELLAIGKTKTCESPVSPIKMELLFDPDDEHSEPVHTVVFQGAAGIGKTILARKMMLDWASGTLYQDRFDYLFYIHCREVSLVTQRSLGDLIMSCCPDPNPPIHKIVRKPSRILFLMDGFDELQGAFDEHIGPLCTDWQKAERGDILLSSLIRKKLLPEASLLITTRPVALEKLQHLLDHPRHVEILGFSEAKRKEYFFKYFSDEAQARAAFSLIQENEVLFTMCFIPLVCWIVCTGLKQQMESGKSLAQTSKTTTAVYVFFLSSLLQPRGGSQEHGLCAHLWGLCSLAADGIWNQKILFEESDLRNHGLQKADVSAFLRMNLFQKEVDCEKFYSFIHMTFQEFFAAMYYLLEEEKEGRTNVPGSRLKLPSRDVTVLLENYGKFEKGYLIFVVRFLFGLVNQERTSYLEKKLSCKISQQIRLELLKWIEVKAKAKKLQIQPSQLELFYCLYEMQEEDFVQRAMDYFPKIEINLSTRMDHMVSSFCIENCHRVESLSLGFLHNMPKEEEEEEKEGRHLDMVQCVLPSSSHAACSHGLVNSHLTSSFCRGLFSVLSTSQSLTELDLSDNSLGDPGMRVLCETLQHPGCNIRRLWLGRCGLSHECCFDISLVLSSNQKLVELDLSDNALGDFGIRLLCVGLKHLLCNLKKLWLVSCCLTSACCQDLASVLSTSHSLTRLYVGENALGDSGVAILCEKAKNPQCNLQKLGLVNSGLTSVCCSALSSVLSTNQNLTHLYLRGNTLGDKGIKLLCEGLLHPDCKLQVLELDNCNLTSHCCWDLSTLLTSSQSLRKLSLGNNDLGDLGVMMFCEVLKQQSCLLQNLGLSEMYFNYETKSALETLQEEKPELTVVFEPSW
Myc-tagged NLRP3 PYD (amino acids 1-219): residues 1-219 of Q96P20
Myc-tagged NLRP3 NACHT (amino acids 220-741): residues 220-741 of Q96P20
Myc-tagged NLRP3 LRR (amino acids 742-1036): residues 742-1036 of Q96P20
UniProt Q8R4B8: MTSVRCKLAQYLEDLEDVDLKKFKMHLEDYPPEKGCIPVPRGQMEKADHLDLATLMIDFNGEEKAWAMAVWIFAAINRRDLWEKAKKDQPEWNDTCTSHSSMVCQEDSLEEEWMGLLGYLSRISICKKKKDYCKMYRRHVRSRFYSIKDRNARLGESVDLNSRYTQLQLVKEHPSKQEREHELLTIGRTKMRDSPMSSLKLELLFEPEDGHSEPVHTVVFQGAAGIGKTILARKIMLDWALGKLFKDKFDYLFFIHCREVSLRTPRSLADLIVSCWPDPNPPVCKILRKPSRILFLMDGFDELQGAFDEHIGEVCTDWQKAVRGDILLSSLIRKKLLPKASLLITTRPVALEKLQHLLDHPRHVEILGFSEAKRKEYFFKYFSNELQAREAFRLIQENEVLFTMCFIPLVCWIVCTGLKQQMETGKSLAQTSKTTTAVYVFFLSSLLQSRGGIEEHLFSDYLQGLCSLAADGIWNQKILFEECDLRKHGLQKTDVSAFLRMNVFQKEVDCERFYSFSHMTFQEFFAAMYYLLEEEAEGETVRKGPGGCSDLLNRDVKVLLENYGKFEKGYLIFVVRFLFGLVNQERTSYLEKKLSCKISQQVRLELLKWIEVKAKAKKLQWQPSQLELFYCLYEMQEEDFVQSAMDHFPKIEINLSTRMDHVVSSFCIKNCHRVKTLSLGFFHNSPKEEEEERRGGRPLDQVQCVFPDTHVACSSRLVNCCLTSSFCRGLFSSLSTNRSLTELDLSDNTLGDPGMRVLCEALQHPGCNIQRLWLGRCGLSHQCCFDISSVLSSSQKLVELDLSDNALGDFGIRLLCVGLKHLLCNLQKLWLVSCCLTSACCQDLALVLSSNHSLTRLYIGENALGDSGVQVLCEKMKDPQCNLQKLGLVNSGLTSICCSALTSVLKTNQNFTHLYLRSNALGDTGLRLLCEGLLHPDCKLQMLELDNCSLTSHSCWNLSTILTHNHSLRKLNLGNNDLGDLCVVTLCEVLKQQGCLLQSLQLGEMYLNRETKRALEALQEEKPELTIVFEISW

What was measured:
Myc-tagged ASC = Myc-tagged ASC (UniProt Q9ULZ3); experiment: co-IP; HEK293T cells co-transfected with Flag- and Myc-tagged constructs; NETN lysis buffer, antibody on protein A/G magnetic beads, Western blot
[1] = target: Myc-tagged NLRP3 LRR (amino acids 742-1036) (UniProt Q96P20); experiment: as above
[2] = target: Myc-tagged NLRP3 NACHT (amino acids 220-741) (UniProt Q96P20); experiment: as above
[3] = target: Myc-tagged NLRP3 PYD (amino acids 1-219) (UniProt Q96P20); experiment: as above
[4] = target: Myc-tagged full-length NLRP3 (UniProt Q96P20); experiment: as above
[5] = target: NLR family pyrin domain containing 3 (NLRP3), endogenous in mouse BMDMs (mouse (endogenous in BMDM)) (UniProt Q8R4B8); experiment: co-IP; endogenous proteins in lysates of BMDMs (untreated, LPS, or LPS followed by nigericin); NETN lysis buffer, antibody on protein A/G magnetic beads, Western blot
[6] = target: T1, apoptosis-associated speck-like protein containing a CARD (ASC), endogenous in mouse BMDMs (mouse (endogenous in BMDM)) (UniProt Q9EPB4); experiment: as above
T1 sequence: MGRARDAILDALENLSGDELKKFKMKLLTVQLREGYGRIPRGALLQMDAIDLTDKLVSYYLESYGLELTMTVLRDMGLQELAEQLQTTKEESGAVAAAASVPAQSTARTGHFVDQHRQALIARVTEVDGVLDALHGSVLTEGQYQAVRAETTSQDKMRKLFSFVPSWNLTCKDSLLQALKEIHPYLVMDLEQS

Measured: binding

B1: Flag-tagged FAM120A (protein, UniProt Q9NZB2 1-1118)
chain: MGVQGFQDYIEKHCPSAVVPVELQKLARGSLVGGGRQRPPQTPLRLLVDADNCLHRLYGGFYTDWVSGGQWNHMLGYLAALAKACFGGNIELFVFFNGALEKARLHEWVKRQGNERQTAQQIVSHVQNKGTPPPKVWFLPPVCMAHCIRLALIRFHVKVAQSIEDHHQEVIGFCRENGFHGLVAYDSDYALCNIPYYFSAHALKLSRNGKSLTTSQYLMHEVAKQLDLNPNRFPIFAALLGNHILPDEDLASFHWSLLGPEHPLASLKVRAHQLVLPPCDVVIKAVADYVRNIQDTSDLDAIAKDVFQHSQSRTDDKVIRFKRAIGYYSATSKPMSFHPPHYLAARPGPFGMPGMVPPHVPPQMLNIPQTSLQAKPVAPQVPSPGGAPGQGPYPYSLSEPAPLTLDTSGKNLTEQNSYSNIPHEGKHTPLYERSSPINPAQSGSPNHVDSAYFPGSSTSSSSDNDEGSGGATNHISGNKIGWEKTGSHSEPQARGDPGDQTKAEGSSTASSGSQLAEGKGSQMGTVQPIPCLLSMPTRNHMDITTPPLPPVAPEVLRVAEHRHKKGLMYPYIFHVLTKGEIKIAVSIEDEANKDLPPAALLYRPVRQYVYGVLFSLAESRKKTERLAFRKNRLPPEFSPVIIKEWAAYKGKSPQTPELVEALAFREWTCPNLKRLWLGKAVEDKNRRMRAFLACMRSDTPAMLNPANVPTHLMVLCCVLRYMVQWPGARILRRQELDAFLAQALSPKLYEPDQLQELKIENLDPRGIQLSALFMSGVDMALFANDACGQPIPWEHCCPWMYFDGKLFQSKLLKASREKTPLIDLCDGQADQAAKVEKMRQSVLEGLSFSRQSHTLPFPPPPALPFYPASAYPRHFGPVPPSQGRGRGFAGVCGFGGPYGETVATGPYRAFRVAAASGHCGAFSGSDSSRTSKSQGGVQPIPSQGGKLEIAGTVVGHWAGSRRGRGGRGPFPLQVVSVGGPARGRPRGVISTPVIRTFGRGGRYYGRGYKNQAAIQGRPPYAASAEEVAKELKSKSGESKSSAMSSDGSLAENGVMAEEKPAPQMNGSTGDARAPSHSESALNNDSKTCNTNPHLNALSTDSACRREAALEAAVLNKEE
binds: Myc-tagged ASC | [1] | [2] | [3] | [4]

B2: FAM120A, endogenous in mouse BMDMs (protein, UniProt Q6A0A9 1-1112)
chain: MGVQGFQDYIEKHCPSAVVPVELQKLARGSLVGGGRQRPPQTPLRLLVDADNCLHRLYGGFYTDWVSGGQWNHMLGYLAALAKACFGGNIELFVFFNGALEKARLHEWVKRQGNERQTAQQIVSHVQNKGTPPPKVWFLPPVCMAHCIRLALIRFHVKVAQSIEDHHQEVIGFCRENGFHGLVAYDSDYALCNIPYYFSAHALKLSRNGKSLTTSQYLMHEVAKQLDLNPNRFPIFAALLGNHILPDEDLASFHWSLLGPEHPLASLKVRAHQLVLPPCDVVIKAVADYVRNIHDTSDLDAIAKDVFQHSQSRTDDKVIRFKRAVGYYSATSKPMPFHPPHYLARPNPFGMPGMVPPYVPPQMLNIPQTSLQAKPAVPQVPSPGGTPGQAPYPYSLSEPALTLDTSGKNLTEQNSYSNIPHEGKHTPLYERSSPINLAQSGSPNHVDSAYFPGSSTSSSSDNDEGGGGATNHISGNKIGWEKTGSHAEPLARGDPGDQVKVEGSSTASSGSQLAEGKGSHMGTVQPIPCLLSMPTRNHMDITTPPLPPVAPEVLRVAEHRHKKGLMYPYIFHILTKGEIKIAVSIEDEANKDLPPAALLYRPVRQYVYGVLFSLAESRKKTERLAFRKNRLPPEFSPLIIKEWAAYKGKSPQTPELVEALAFREWTCPNLKRLWLGKAVEDKNRRMRAFLACMRSDTPAMLNPANVPTHLMVLCCVLRYMVQWPGARILRRQELDAFLAQALSPKLYEPDQLQELKIDNLDPRGIQLSALFMSGVDMALFANDACGQPIPWEHCCPWMYFDGKLFQSKLLKASREKTPLIDLCDGQAEQAAKVEKMRQSILEGLSFSRQNHPLPFPPPPALPFYPASVYPRHFGPVPPSQGRGRGFAGVCGFGGHYGETVATGPYRAFRVTAASGHCGAFSGSDSSRTSKSQGGVQPIPSQGGKLEIAGTVVGHWAGSRRGRGGRGPFPLQVVSVGGPARGRPRGVISTPVIRTFGRGGRYYGRGYKSQGAIQGRPPYAASAEEVAKELKSKSGESKSSAVSLAENGVMAEEKPVPQLNGSTGDPRVPSHSESALNNDSKPCNTNPHLNALSTDSACRREAALEAAVLNKEE
binds: [5] | [6]
